Assay results published in PMC10993188.

The chains behind the UniProt entries cited, without tags or fusion partners.
UniProt Q06609, whole entry K133R/S181P: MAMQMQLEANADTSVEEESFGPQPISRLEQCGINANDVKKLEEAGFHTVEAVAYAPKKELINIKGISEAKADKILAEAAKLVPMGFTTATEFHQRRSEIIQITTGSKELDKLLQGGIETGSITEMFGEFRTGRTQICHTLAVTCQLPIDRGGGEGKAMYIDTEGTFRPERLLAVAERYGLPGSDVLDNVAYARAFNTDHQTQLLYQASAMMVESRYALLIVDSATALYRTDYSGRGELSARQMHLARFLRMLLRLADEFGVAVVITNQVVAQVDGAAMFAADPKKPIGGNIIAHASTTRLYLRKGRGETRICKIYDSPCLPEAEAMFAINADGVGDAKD
UniProt Q06609, whole entry K133R: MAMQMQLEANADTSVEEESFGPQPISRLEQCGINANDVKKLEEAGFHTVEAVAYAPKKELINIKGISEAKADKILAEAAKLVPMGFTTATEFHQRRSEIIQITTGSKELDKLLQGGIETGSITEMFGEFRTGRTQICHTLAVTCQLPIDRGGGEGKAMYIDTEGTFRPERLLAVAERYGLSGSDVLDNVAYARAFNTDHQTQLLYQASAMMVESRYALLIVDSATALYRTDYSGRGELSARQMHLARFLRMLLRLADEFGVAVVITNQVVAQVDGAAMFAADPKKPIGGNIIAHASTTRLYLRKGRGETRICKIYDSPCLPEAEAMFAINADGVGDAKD
UniProt Q06609, whole entry S181P: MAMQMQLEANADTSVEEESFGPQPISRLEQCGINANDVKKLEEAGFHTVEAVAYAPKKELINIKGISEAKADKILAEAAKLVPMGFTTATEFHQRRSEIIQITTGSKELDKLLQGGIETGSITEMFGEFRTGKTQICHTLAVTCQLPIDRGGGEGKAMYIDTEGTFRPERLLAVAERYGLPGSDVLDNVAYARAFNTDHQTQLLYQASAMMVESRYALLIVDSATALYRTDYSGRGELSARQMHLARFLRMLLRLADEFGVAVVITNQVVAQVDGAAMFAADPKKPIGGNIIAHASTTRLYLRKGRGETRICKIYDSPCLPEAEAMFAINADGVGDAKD

Tests used:
[1] = system: RAD51 S181P (SP) + BRCA2 Ex27 peptide (TR2); assay: EMSA super-shift; conditions: 5.7 uM Ex27, 1 mM ATP, 1 mM Mg2+, no ternary complex with Ex27 (SP itself binds DNA), not protected from GST-BRC3; EMSA: 10 mM Tris-HCl pH 7.5, 10 mM KCl, 1 mM MgCl2, 1 mM ATP, 1 mM DTT, 25 C, 25 nM DNA, 1.1 uM RAD51; recombinant protein; label: 5' FAM (FITC); single-stranded DNA
[2] = system: RAD51 K133R/S181P (KR/SP) + BRCA2 Ex27 peptide (TR2); assay: EMSA super-shift; conditions: 5.7 uM Ex27, 1 mM ATP, 1 mM Mg2+, no ternary complex with Ex27 (KR/SP itself binds DNA), not protected from GST-BRC3; EMSA: 10 mM Tris-HCl pH 7.5, 10 mM KCl, 1 mM MgCl2, 1 mM ATP, 1 mM DTT, 25 C, 25 nM DNA, 1.1 uM RAD51; recombinant protein; label: 5' FAM (FITC); single-stranded DNA
[3] = target: RAD51 K133R/S181P (KR/SP) (Homo sapiens) (UniProt Q06609); assay: EMSA; conditions: 1 mM ATP, 1 mM Mg2+, no Ex27, complex disassembled by GST-BRC3; EMSA: 10 mM Tris-HCl pH 7.5, 10 mM KCl, 1 mM MgCl2, 1 mM ATP, 1 mM DTT, 25 C, 25 nM DNA, 1.1 uM RAD51; recombinant protein; label: 5' FAM (FITC); single-stranded DNA
[4] = target: RAD51 K133R (KR) (Homo sapiens) (UniProt Q06609); assay: EMSA; conditions: 1 mM ATP, 1 mM Mg2+, no Ex27, complex disassembled by GST-BRC3; EMSA: 10 mM Tris-HCl pH 7.5, 10 mM KCl, 1 mM MgCl2, 1 mM ATP, 1 mM DTT, 25 C, 25 nM DNA, 1.1 uM RAD51; recombinant protein; label: 5' FAM (FITC); single-stranded DNA
[5] = target: RAD51 S181P (SP) (Homo sapiens) (UniProt Q06609); assay: EMSA; conditions: 1 mM ATP, 1 mM Mg2+, no Ex27, complex disassembled by GST-BRC3; EMSA: 10 mM Tris-HCl pH 7.5, 10 mM KCl, 1 mM MgCl2, 1 mM ATP, 1 mM DTT, 25 C, 25 nM DNA, 1.1 uM RAD51; recombinant protein; label: 5' FAM (FITC); single-stranded DNA
[6] = system: RAD51 S181P (SP) + BRCA2 Ex27 peptide (TR2); assay: stopped-flow PIFE; conditions: Ex27 has no effect on SP assembly (no ternary complex, SP itself binds DNA); recombinant protein; label: 5' Cy3; single-stranded DNA
[7] = system: RAD51 S181P (SP) + BRCA2 Ex27 peptide (TR2); assay: BLI; conditions: 10 uM Ex27, 2 mM ATP, 5 mM Mg2+, no Ex27 association with SP filament (SP itself binds DNA); BLI: 50 mM Tris-HCl pH 7.5, 50 mM KCl, 5 mM MgCl2, 2 mM ATP, 0.05% Tween 20, 15 nM DNA; recombinant protein; label: 3' biotin; single-stranded DNA
[8] = system: RAD51 WT + BRCA2 Ex27 peptide (TR2); assay: BLI; conditions: 10 uM Ex27, 2 mM ATP, 5 mM Mg2+, Ex27 suppresses GST-BRC4-induced dissociation; BLI: 50 mM Tris-HCl pH 7.5, 50 mM KCl, 5 mM MgCl2, 2 mM ATP, 0.05% Tween 20, 15 nM DNA; recombinant protein; label: 3' biotin; single-stranded DNA

## AAATCAATCTAAAGTATATATGAGTAAACTTGGTCTGACAGTTACCAATGCTTAATCAGTGAGGCACCTATCTCAGCGATCTGTCTATTT [5'FITC-90mer ssDNA]
[1]
  binding result: no binding
[2]
  binding result: no binding
[3]
  binding result: binds
[4]
  binding result: binds
[5]
  binding result: binds

## TTTTTTTTTTTTTTTTTTTTTTTTTTTTTTTTTTTTTTTTTTTTTTTTTTTTTTTTTTTTTTTTTTTTTTTTTTTTTTT [Cy3-(dT)79]
[6]
  binding result: no binding

## TTTTTTTTTTTTTTTTTTTTTTTTTTTTTTTTTTTTTTTTTTT [oligo-dT 43-mer]
[7]
  binding result: no binding
[8]
  binding result: binds

Construct, isoform or probe ends are uncertain for at least one entry. For some assays here: No signal at the amounts used counts as a negative. For some assays here: At least one verdict was read from the data and is not stated in words by the source.
